Experimental data published in PubChem BioAssay AID590 (National Center for Advancing Translational Sciences (NCATS), 2007).
Out of some 59,000 compounds screened, about 6,500 (11%) were called active. The shares of active, inactive and inconclusive entries below differ from those in the screen. Rule as the data show it: active = max dye-equivalent concentration above about 10 nM; inconclusive = mostly about 1.1 nM to 9.6 nM; inactive = weaker than that.

Assay: qHTS Assay for Spectroscopic Profiling in A350 Spectral Region
Conditions: Compound autofluorescence, 340/450 nm, Alexa 350 dye-equivalents; active compounds read high
Description: NIH Molecular Libraries Screening Centers Network [MLSCN]
NIH Chemical Genomics Center [NCGC]
Occasionally, the artifactual effect may originate from the compounds own spectral or other biophysical properties which generally tend to track its assay concentration. Pre-screening/profiling the library with respect to the compounds spectral properties should help one exclude false positives early on. While the most informative fluorescent profiling data set is obtained by performing a full excitation and emission scan of each well by using a monochromator-based plate reader, such an approach is practical only on a very limited scale as scanning each well requires long time. An alternative approach, applied here, is to perform plate reader scans using selected excitation and emission wavelength pairs to generate a multidimensional relational database that correlates compound concentration and the respective relative fluorescence intensity at a given wavelength set. A standard curve of Alexa 350 (A 350) present on each plate as six-point concentration series, was used to compute a normalized fluorescence response, termed dye-equivalent concentration, for each compound at each concentration.
NCGC Assay Protocol Summary:
100 mM Tris buffer, pH 8.0
The wells in columns 1 through 4 of a Kalypsys polypropylene 1536-well compound plate were filled with standard solutions of fluorophore corresponding to the spectral region of interest. Solutions of A 350 were placed in the following wells: I1, J1: 3 mM, I2, J2: 300 uM, I3, J3: 30 uM, I4, J4: zero (DMSO), K1, L1: 3 uM, K2, L2: […], K3, L3: 300 nM, K4, L4: zero (DMSO).
Six uL of buffer were dispensed to 1536-well Greiner black plates. Compounds and dye standards (23 nL) were transferred via Kalypsys PinTool. The plates were incubated for 15 min at room temperature, and then read on ViewLux (Perkin-Elmer) High-throughput CCD imager using 340 nm and 450 nm excitation and emission filter set.
Keywords: NIH Roadmap, MLSCN, MLI, MLSMR, qHTS, NCGC, A350, A-350, Fluorescent Profiling.

Structure (SMILES) | max dye-equivalent concentration
CCn1nnc(-c2ccccc2NC(=O)c2ccc(-n3cnnn3)cc2)n1 | inconclusive: 6.2 nM
CCCc1nnc(NC(=O)c2c(O)c3cccc4c3n(c2=O)CCC4)s1 | inconclusive: 9.9 nM
CCN(CC)c1ccc2c(Cl)c(Br)c(=O)oc2c1 | inconclusive: 1.4 nM
COc1ccccc1-c1nnc(Nc2nc3c(OC)cccc3s2)o1 | active: 940 nM
COc1ccc(-c2nc(C#N)c(NCCCN(C)C)o2)cc1OC | active: 18 nM
CCCCCOC(=O)CSc1nnc(-c2cc(OC)c(OC)c(OC)c2)o1 | inconclusive: 1.2 nM
COc1ccc(CN(C(=O)CN2C(=O)C(C)Oc3ccccc32)C2CCCC2)c(OC)c1 (centres undefined) | inconclusive: 1.2 nM
O=c1c(-c2ccc(Cl)cc2)nc2cncnc2n1Cc1ccccc1Cl | inactive
COC(=O)c1ccc(C(=O)OC)c(NC(=O)CN2CCN(c3ccccc3OC)CC2)c1 | inconclusive: 1.5 nM
CCC(=O)Nc1ccccc1N1CCN(S(C)(=O)=O)CC1 | inconclusive: 1.8 nM
Cc1cc2ccc(=O)oc2cc1OC[C@@H](O)C(C)(C)O | active: 4800 nM
CCn1cc(C(=O)O)c(=O)c2cnc(N3CCN(C(=O)Nc4ccccc4)CC3)nc21 | inconclusive: 4.8 nM
Fc1ccc(-c2cc3nc(-c4ccccc4)cc(N4CCOCC4)n3n2)cc1 | active: 530 nM
CCOC(=O)c1cc(NC(=O)SCC(=O)O)c(C)nc1C | inconclusive: 1.6 nM
COc1cccc(-c2oc3ccccc3c(=O)c2O)c1 | inconclusive: 4.3 nM
CCOc1ccccc1Nc1nc2ccccc2[nH]1 | inconclusive: 1.3 nM
N#Cc1ccc(CN2CC[C@@]3(CCCN(C(=O)c4cccc(F)c4)C3)C2)cc1 | inactive
COc1ccc(C2C(C#N)=C(N)OC3=C2C(=O)CCC3)c(OC)c1OC (centres undefined) | inconclusive: 2.3 nM
Cn1c(SCC(=O)N2CCCCCC2)nc2c([nH]c3ccccc32)c1=O | active: 44 nM
O=C(c1ccco1)N1CCN(CCCCN2C(=O)c3ccccc3C2=O)CC1 | inconclusive: 3.2 nM
Cc1ccc(-c2nnc(CSc3nc(C)nc4sc(C)c(C)c34)o2)cc1 | inconclusive: 2.1 nM
O=C(c1ccco1)N1CCN(c2nc3ccccc3n3nnnc23)CC1 | inconclusive: 8.1 nM
CC(=O)c1cc(C#N)c(SCC(=O)OC(C)(C)C)nc1C | inconclusive: 1.2 nM

Structure (SMILES) | max dye-equivalent concentration
NCCCC[C@H](N[C@@H](CCc1ccccc1)C(=O)O)C(=O)N1CCC[C@H]1C(=O)O | inconclusive: 3.6 nM
COc1ccc2c(c1)-c1nc(NC(=O)c3ccco3)sc1CC2 | inconclusive: 2.8 nM
CC(=O)Nc1nc2c(ncn2COCCOC(C)=O)c(=O)[nH]1 | inactive
Cn1c2c(c(=O)n(C)c1=O)C(c1ccc(Br)cc1)Nc1ccccc1O2 (centres undefined) | inactive
CN(C(=O)COC(=O)c1ccccc1Nc1ccccc1)C1CCS(=O)(=O)C1 (centres undefined) | inconclusive: 6.3 nM
CCOC(=O)c1[nH]c(COC(=O)c2ccccc2NC(=O)c2ccco2)c(C(=O)OCC)c1C | inconclusive: 4 nM
CCOCCCn1c(=S)[nH]c2cc(C(=O)N3CCN(C)CC3)ccc2c1=O | inconclusive: 1.1 nM
O=C(NCc1cccs1)C1CCN(S(=O)(=O)c2ccc3c(c2)OCCO3)CC1 | inactive
N#CCSc1nc2c(cc1C#N)CCCC2 | inconclusive: 1.5 nM
CCN(Cc1cc2ccc(C)cc2[nH]c1=O)C(=O)c1cccnc1 | inconclusive: 8.8 nM
O=C(COc1nc2ccccc2nc1N1CCOCC1)N1CCc2ccccc21 | active: 280 nM
CN(C)S(=O)(=O)c1ccc2nc(NC(=O)c3cccnc3)sc2c1 | inconclusive: 3.2 nM
O=C(Nc1ccccn1)c1ccc2ccccc2n1 | inconclusive: 1.6 nM
CCCCCCNC(=O)C(C#N)c1nc2ccccc2nc1N1CCOCC1 (centres undefined) | inconclusive: 4.3 nM
CN(C)C(=O)c1ccc(-c2ccc3ncnc(NC4CCNCC4)c3c2)cc1 | inactive
Cc1ccc(C2C=C(c3ccc4c(c3)OCO4)Nc3ncnn32)cc1 (centres undefined) | inconclusive: 2.1 nM
CC(=O)C1=C(C)OC(N)=C(C#N)C1c1ccco1 (centres undefined) | inconclusive: 5.6 nM
CCN1CCN(c2ncc(C(=O)Nc3c(F)cc(F)cc3Br)c3ccccc23)CC1 | inconclusive: 3.1 nM
Cc1nc2cnc(Nc3ccccc3)nc2n(Cc2ccc(F)cc2)c1=O | inconclusive: 7.7 nM
COc1ccc(C2c3c(oc4ccccc4c3=O)C(=O)N2CCCN2CCOCC2)cc1 (centres undefined) | inconclusive: 2.6 nM
Cc1nc(NC2=NCN(Cc3ccc4c(c3)OCO4)CN2)nc2ccccc12 | inactive
CCNc1nc(SCCOc2ccccc2)nc(N(C)C)n1 | inactive
CCn1cc(C(=O)NCc2ccccn2)c(=O)c2cc(F)c(N3CCN(C)CC3)cc21 | inconclusive: 6.4 nM

Structure (SMILES) | max dye-equivalent concentration
O=C(Nc1ccccc1OC(F)F)c1ccc(Br)o1 | inconclusive: 1.2 nM
CC(C)(C)n1ncc2c(=O)n(CC(=O)OCc3ccccc3)cnc21 | inconclusive: 6.2 nM
COc1cccc(CN(Cc2cccnc2)S(=O)(=O)c2ccc(-n3cnnn3)c(C)c2)c1OC | inconclusive: 6.4 nM
CC(C)OCC(O)CN (centres undefined) | inconclusive: 6.9 nM
CCN(CC)S(=O)(=O)c1ccc2nc(NC(=O)c3cccs3)sc2c1 | inconclusive: 2.8 nM
CCOc1ccc2ccccc2c1/C=N/n1cncn1 | inconclusive: 2.8 nM
Cc1ccc2[nH]c3c(N4CCOCC4)ncnc3c2c1 | active: 270 nM
COc1ccccc1NS(=O)(=O)c1ccccc1C#N | inconclusive: 5.9 nM
COC(=O)C1=C(N)Oc2cc(C)[nH]c(=O)c2C1c1cc(OC)c(OC)c(OC)c1 (centres undefined) | inconclusive: 2.4 nM
COc1ccc(Oc2ncc3nc(-c4cc(F)cc(F)c4)c(=O)n(CCC#N)c3n2)cc1 | inactive
CO[C@]1(NC(=O)CSCC#N)C(=O)N2C(C(=O)O)=C(CSc3nnnn3C)CS[C@H]21 | inactive
COc1cccc(C2CC(c3c(F)cccc3Cl)n3nc(N)nc3N2)c1 (centres undefined) | inconclusive: 1.4 nM
CCCCOC(=O)C1=C(C)NC2=C(C(=O)CCC2)C1c1cc(OC)ccc1OC (centres undefined) | active: 54 nM
O=C(O)[C@@H]1[C@@H](C(=O)Nc2ccccc2)[C@@H]2C=C[C@@H]1O2 | inactive
CCc1nnc(NC(=O)CSc2nnc(-c3ccccc3OC)n2-c2ccccc2)s1 | inactive
c1ccc(/C(=N/Nc2nc3ccccc3s2)c2ccccn2)cc1 | inactive
COc1ccccc1N1CCN(S(=O)(=O)c2ccccc2F)CC1 | inconclusive: 1.3 nM
COC(=O)C1CCN(C(=O)CN2C(=O)NC(CCc3ccccc3)C2=O)CC1 (centres undefined) | inconclusive: 1.9 nM
Cn1c(CN2CCC(C(N)=O)CC2)c(C#N)c2ccccc21 | active: 12 nM
CCOc1ccc2nc(NC(=O)C3CCCN(S(=O)(=O)c4cccs4)C3)sc2c1 (centres undefined) | inconclusive: 6.5 nM
Cc1cc(C)c2[nH]c(=O)c(CN(Cc3ccc4c(c3)OCO4)Cc3nnnn3C3CCCC3)cc2c1 | inconclusive: 7 nM
O=C(CSc1nc2[nH]ncc2c(=O)n1-c1ccccc1)N1CCCc2ccccc21 | inactive
COC(=O)CC1NCCNC1=O (centres undefined) | inconclusive: 2.3 nM

Structure (SMILES) | max dye-equivalent concentration
CCOC(=O)CSCc1c(C#N)c2ccccc2n1C | inconclusive: 1.2 nM
NC(=O)c1ccc(-c2ccc(Br)cc2)o1 | inconclusive: 1.4 nM
CCCN1CC=C2C(C#N)=C(N)C(C#N)(C#N)C(c3cccc(OC)c3OC)C2C1 (centres undefined) | active: 500 nM
CCn1c(C)nc2cc(C(=O)n3cc(C(=O)c4cc(F)ccc4O)cn3)ccc21 | active: 16 nM
COc1ccc(-c2nc3cnc(Nc4cccc(OC)c4)nc3n(C3CC3)c2=O)cc1 | inconclusive: 2.4 nM
O=C(O)CCC(=O)c1ccc2ccc3cccc4ccc1c2c34 | active: 990 nM
C1CCCN(CCCCN2CCCCCC2)CC1 | active: 22 nM
COc1cc(C#CC#CCN2CCCCC2)ccc1O | inconclusive: 1.1 nM
COC(=O)CC1=C(C(=O)OC)C(c2cccs2)C(C#N)=C(N)O1 (centres undefined) | inconclusive: 8.9 nM
CCCn1c(=N)n(CC(=O)c2ccco2)c2ccccc21 | inconclusive: 3.7 nM
O=C(Cn1cc(C(=O)c2cccs2)c2ccccc21)NCC1CCCO1 (centres undefined) | inconclusive: 1.4 nM
COc1ccc(-c2cc(C(F)(F)F)nc(SCC(=O)N3CC(C)OC(C)C3)n2)cc1OC (centres undefined) | active: 190 nM
COc1cc2cc(C(c3nnnn3C3CCCCC3)N(C)C3CCCCC3)c(=O)[nH]c2cc1OC (centres undefined) | active: 42 nM
Cc1ccc2cccc(OCC(=O)NCc3ccco3)c2n1 | inactive
CC1Cc2ccccc2N1C(=O)C1CCN(S(=O)(=O)Cc2ccccc2)CC1 (centres undefined) | inconclusive: 3.4 nM
CCOC(=O)N1CCC(NC(=O)CSc2cc(=O)n(C)c3ccccc23)CC1 | inactive
CC(NC(=O)c1ccncc1)C(c1cccs1)N1CCOCC1 (centres undefined) | inconclusive: 1.3 nM
CCOC(=O)c1sc2nc3n(c(=O)c2c1C)CCC(C)CC3 (centres undefined) | inconclusive: 6.3 nM
Cc1nn(-c2ccccn2)c2c1C(c1ccsc1)C1=C(CCCC1=O)N2 (centres undefined) | active: 350 nM
COc1cccc(N2C(=O)CC(N3CCC(c4nc5ccccc5[nH]4)CC3)C2=O)c1 (centres undefined) | inconclusive: 1.7 nM

In another format: results already given
Structure (SMILES)	max dye-equivalent concentration
CCN(CC)c1ccc2c(Cl)c(Br)c(=O)oc2c1	inconclusive: 1.4 nM
O=c1c(-c2ccc(Cl)cc2)nc2cncnc2n1Cc1ccccc1Cl	inactive
CCn1cc(C(=O)O)c(=O)c2cnc(N3CCN(C(=O)Nc4ccccc4)CC3)nc21	inconclusive: 4.8 nM
CCOC(=O)c1cc(NC(=O)SCC(=O)O)c(C)nc1C	inconclusive: 1.6 nM
CCOc1ccccc1Nc1nc2ccccc2[nH]1	inconclusive: 1.3 nM
CN(C)S(=O)(=O)c1ccc2nc(NC(=O)c3cccnc3)sc2c1	inconclusive: 3.2 nM
CN(C)C(=O)c1ccc(-c2ccc3ncnc(NC4CCNCC4)c3c2)cc1	inactive
CC(=O)C1=C(C)OC(N)=C(C#N)C1c1ccco1 (centres undefined)	inconclusive: 5.6 nM
CC(C)(C)n1ncc2c(=O)n(CC(=O)OCc3ccccc3)cnc21	inconclusive: 6.2 nM
COc1cccc(CN(Cc2cccnc2)S(=O)(=O)c2ccc(-n3cnnn3)c(C)c2)c1OC	inconclusive: 6.4 nM
CCCCOC(=O)C1=C(C)NC2=C(C(=O)CCC2)C1c1cc(OC)ccc1OC (centres undefined)	active: 54 nM
Cc1cc(C)c2[nH]c(=O)c(CN(Cc3ccc4c(c3)OCO4)Cc3nnnn3C3CCCC3)cc2c1	inconclusive: 7 nM
NC(=O)c1ccc(-c2ccc(Br)cc2)o1	inconclusive: 1.4 nM
COc1ccc(-c2nc3cnc(Nc4cccc(OC)c4)nc3n(C3CC3)c2=O)cc1	inconclusive: 2.4 nM
C1CCCN(CCCCN2CCCCCC2)CC1	active: 22 nM
COc1cc(C#CC#CCN2CCCCC2)ccc1O	inconclusive: 1.1 nM
COC(=O)CC1=C(C(=O)OC)C(c2cccs2)C(C#N)=C(N)O1 (centres undefined)	inconclusive: 8.9 nM
CC(NC(=O)c1ccncc1)C(c1cccs1)N1CCOCC1 (centres undefined)	inconclusive: 1.3 nM
CCOC(=O)c1sc2nc3n(c(=O)c2c1C)CCC(C)CC3 (centres undefined)	inconclusive: 6.3 nM
